Laboratory results reported in patent publication US11697639B2, “Quaternary ammonium salt compound, preparation method therefor and use thereof” (WEST CHINA HOSPITAL, SICHUAN UNIVERSITY, priority 2018, dated 2023).
Some results were stated once for a whole list of compounds, not compound by compound.

What follows are molecules tested on rat's sciatic nerve (assay: Neuropathological damage after injection near the sciatic nerve (HE staining)). Conditions: 0.5 mL of 20 mmol/mL injected near sciatic nerve, day 7 and day 14 after injection.
Format: in vivo
`CCCC[N+](CC)(CCOCCN1CCCCC1C(=O)Nc1c(C)cccc1C)CC(=O)Nc1c(C)cccc1O` (stereo not shown) [example 5] was tested, and the “Neuropathological damage (nerve injury, vascular proliferation, demyelination, muscle inflammation, connective tissue inflammation) compared with lidocaine and levobupivacaine positive control groups” value was “did not show significant differences”. In the case of `CCC[N+](CC)(CCCCCCCCN1CCCCC1C(=O)Nc1c(C)cccc1C)CC(=O)Nc1c(C)ccc(Br)c1C` (stereo not shown) [example 4], the “Neuropathological damage (nerve injury, vascular proliferation, demyelination, muscle inflammation, connective tissue inflammation) compared with lidocaine and levobupivacaine positive control groups” value is reported as “did not show significant differences”. In the case of `CC[N+](C)(CCCN(C)CC(=O)Nc1c(C)cccc1C)CC(=O)Nc1c(C)cccc1C` (stereo not shown) [example 9], the “Neuropathological damage (nerve injury, vascular proliferation, demyelination, muscle inflammation, connective tissue inflammation) compared with lidocaine and levobupivacaine positive control groups” value is reported as “did not show significant differences”. For `CC[N+](C)(CCCN1CCCCC1C(=O)Nc1c(C)cccc1C)CC(=O)Nc1c(C)cccc1C` (stereo not shown) [example 1], the “Neuropathological damage (nerve injury, vascular proliferation, demyelination, muscle inflammation, connective tissue inflammation) compared with lidocaine and levobupivacaine positive control groups” value was “did not show significant differences”. `CCC[N+](CC)(CCCCCCCCN1CCCCC1C(=O)Nc1c(C)cccc1C)CC(=O)Nc1c(C)ccc(Br)c1C` (stereo not shown) [example 11] was tested, and the “Neuropathological damage (nerve injury, vascular proliferation, demyelination, muscle inflammation, connective tissue inflammation) compared with lidocaine and levobupivacaine positive control groups” value was “did not show significant differences”. In the case of `CC[N+](C)(CCCN1CCCCC1C(=O)Nc1c(C)cccc1C)CC(=O)Nc1c(C)ccc(Cl)c1C` (stereo not shown) [example 6], the “Neuropathological damage (nerve injury, vascular proliferation, demyelination, muscle inflammation, connective tissue inflammation) compared with lidocaine and levobupivacaine positive control groups” value is reported as “did not show significant differences”. `CCC[N+](CC)(CCCCCN1CCCCC1C(=O)Nc1c(C)cccc1C)CC(=O)Nc1c(C)cc([N+](=O)[O-])cc1C` (stereo not shown) [example 3] was tested, and the “Neuropathological damage (nerve injury, vascular proliferation, demyelination, muscle inflammation, connective tissue inflammation) compared with lidocaine and levobupivacaine positive control groups” value was “did not show significant differences”. In the case of `CCC[N+](C)(CCCCCN1CCCCC1C(=O)Nc1c(C)cc(C)cc1C)CC(=O)Nc1c(C)cc(C#N)cc1C` (stereo not shown) [example 13], the “Neuropathological damage (nerve injury, vascular proliferation, demyelination, muscle inflammation, connective tissue inflammation) compared with lidocaine and levobupivacaine positive control groups” value is reported as “did not show significant differences”. In the case of `CCC[N+](C)(CCCCCN1CCCCC1C(=O)Nc1c(C)ccc(C#N)c1C)CC(=O)Nc1c(C)cccc1C` (stereo not shown) [example 8], the “Neuropathological damage (nerve injury, vascular proliferation, demyelination, muscle inflammation, connective tissue inflammation) compared with lidocaine and levobupivacaine positive control groups” value is reported as “did not show significant differences”. In the case of `CCC[N+](CC)(CCCCCCCCN1CCCCC1C(=O)Nc1c(C)cccc1C)CC(=O)Nc1c(C)cccc1OC` (stereo not shown) [example 7], the “Neuropathological damage (nerve injury, vascular proliferation, demyelination, muscle inflammation, connective tissue inflammation) compared with lidocaine and levobupivacaine positive control groups” value is reported as “did not show significant differences”.
